According to US6383753 (REGENTS OF THE UNIVERSITY OF MICHIGAN, dated 2002):
These are yes or no findings as the source states them, for the method shown. Some entries that bind do so weakly or less than the wild type.

Protein sequences, listed by entry. Tags and fused reporters are not part of them. Lines headed by an entry give the natural chain unless they say otherwise; changes in a name come on top.
UniProt P78316: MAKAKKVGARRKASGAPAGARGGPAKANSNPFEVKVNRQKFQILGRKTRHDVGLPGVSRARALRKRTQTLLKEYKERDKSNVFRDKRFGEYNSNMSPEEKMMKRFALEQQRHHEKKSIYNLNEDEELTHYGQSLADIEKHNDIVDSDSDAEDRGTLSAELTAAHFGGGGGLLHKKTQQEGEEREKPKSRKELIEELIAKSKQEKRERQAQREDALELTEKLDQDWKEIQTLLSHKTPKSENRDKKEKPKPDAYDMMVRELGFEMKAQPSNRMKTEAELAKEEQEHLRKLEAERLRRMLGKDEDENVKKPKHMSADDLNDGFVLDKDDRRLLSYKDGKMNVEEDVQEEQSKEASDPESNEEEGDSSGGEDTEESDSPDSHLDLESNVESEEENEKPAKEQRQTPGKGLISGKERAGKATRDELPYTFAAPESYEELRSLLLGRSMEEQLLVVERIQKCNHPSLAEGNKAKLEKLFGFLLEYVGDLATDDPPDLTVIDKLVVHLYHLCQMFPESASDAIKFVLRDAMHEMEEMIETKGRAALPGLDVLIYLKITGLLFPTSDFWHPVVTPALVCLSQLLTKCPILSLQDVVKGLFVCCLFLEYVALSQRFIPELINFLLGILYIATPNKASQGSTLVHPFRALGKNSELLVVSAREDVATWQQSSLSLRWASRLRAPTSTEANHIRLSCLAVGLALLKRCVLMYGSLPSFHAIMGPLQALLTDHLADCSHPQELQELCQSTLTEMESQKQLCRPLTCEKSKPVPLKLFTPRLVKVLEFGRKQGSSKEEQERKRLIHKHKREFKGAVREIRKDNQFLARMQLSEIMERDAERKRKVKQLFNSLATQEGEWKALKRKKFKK

What was measured:
human ENIP1 (human) [1] = molecular target: T1, human ENIP1 (human) (UniProt P78316); test: yeast two-hybrid (FIG. 17)
T1 sequence: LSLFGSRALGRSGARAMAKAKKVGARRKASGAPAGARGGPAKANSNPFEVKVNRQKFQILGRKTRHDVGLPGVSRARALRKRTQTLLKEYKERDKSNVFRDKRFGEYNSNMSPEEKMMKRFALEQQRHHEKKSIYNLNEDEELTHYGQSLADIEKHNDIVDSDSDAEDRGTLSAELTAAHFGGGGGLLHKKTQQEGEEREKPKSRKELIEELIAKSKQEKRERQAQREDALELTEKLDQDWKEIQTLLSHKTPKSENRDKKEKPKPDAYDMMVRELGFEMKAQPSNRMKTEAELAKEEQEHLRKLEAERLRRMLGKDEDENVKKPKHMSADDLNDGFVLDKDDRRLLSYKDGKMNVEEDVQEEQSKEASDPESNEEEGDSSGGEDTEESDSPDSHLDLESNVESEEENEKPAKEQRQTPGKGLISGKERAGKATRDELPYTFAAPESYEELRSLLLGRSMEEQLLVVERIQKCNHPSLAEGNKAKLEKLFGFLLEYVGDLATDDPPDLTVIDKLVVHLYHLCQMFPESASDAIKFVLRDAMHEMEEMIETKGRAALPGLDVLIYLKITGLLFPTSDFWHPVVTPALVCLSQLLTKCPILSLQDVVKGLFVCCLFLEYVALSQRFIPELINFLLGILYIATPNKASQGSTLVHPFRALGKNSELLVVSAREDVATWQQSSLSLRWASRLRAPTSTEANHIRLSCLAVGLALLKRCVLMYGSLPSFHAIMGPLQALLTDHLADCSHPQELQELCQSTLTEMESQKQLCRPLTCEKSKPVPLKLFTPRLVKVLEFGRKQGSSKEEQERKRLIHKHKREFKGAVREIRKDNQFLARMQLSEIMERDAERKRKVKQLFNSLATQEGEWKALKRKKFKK

human ENIP1 (human) [2] = molecular target: T1, human ENIP1 (human); test: yeast two-hybrid, cell growth assay on selective (no histidine) medium

B1: mouse Emg1 protein (other)
chain: MSAASGGFQPRERRFSVQEQDWETTPPKKLRLGAGSKCGGRRLIVVLEGASLETVKVGKTYELLNCDRHKSMLLKNGRDPGEVRPDITHQSLLMLMDSPLNRAGLLQVYIHTQKNVLIEVNPQTRIPRTFDRFCGLMVQLLHKLSVRAADGPQKLLKVIKNPVSDHFPVGCMKIGTSFSVEDISDIRELVPSSDPVVFVVGAFAHGKVSVEYTEKMVSISNYPLSAALTCAKVTTAFEEVWGVI
notes: Used as a two-hybrid fusion; also called mEmg1; murine Emg1
For B1, the binding (human ENIP1 (human) [1]) was “binds” and the binding (human ENIP1 (human) [2]) was “binds”.
